Three substances from PMC12040643 can be followed below.

Sequences of proteins named here, by UniProt entry; tags and fusion partners are left off. A change or cut given only in a name is not applied to a line headed by its entry. Residues count along the entry.
UniProt P13612: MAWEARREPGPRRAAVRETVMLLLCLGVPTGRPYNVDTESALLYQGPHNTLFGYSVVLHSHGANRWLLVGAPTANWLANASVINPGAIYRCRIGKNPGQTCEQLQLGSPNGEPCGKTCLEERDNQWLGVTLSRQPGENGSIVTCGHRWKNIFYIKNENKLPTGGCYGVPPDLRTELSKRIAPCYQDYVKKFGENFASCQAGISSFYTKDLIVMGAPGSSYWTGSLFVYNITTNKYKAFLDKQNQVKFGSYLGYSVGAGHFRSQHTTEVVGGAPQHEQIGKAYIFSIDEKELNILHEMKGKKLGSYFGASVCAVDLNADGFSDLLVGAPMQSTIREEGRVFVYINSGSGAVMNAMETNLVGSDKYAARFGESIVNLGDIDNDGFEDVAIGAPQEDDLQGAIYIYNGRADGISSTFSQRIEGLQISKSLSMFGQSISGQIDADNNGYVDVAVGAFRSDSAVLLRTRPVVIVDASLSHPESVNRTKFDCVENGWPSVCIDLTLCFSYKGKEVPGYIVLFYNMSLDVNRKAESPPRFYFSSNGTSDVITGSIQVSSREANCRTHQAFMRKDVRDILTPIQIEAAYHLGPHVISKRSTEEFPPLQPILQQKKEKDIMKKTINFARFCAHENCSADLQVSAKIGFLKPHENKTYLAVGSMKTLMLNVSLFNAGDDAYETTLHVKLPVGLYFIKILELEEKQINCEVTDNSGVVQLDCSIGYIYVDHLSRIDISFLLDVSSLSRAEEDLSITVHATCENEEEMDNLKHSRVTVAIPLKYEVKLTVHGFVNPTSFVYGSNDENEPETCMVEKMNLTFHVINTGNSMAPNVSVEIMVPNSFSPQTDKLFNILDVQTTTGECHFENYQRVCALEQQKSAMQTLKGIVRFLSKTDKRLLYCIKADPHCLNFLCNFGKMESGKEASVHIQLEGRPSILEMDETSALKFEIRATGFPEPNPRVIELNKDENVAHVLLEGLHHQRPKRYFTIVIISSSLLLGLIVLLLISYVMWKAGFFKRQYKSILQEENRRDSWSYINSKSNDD
UniProt P05556: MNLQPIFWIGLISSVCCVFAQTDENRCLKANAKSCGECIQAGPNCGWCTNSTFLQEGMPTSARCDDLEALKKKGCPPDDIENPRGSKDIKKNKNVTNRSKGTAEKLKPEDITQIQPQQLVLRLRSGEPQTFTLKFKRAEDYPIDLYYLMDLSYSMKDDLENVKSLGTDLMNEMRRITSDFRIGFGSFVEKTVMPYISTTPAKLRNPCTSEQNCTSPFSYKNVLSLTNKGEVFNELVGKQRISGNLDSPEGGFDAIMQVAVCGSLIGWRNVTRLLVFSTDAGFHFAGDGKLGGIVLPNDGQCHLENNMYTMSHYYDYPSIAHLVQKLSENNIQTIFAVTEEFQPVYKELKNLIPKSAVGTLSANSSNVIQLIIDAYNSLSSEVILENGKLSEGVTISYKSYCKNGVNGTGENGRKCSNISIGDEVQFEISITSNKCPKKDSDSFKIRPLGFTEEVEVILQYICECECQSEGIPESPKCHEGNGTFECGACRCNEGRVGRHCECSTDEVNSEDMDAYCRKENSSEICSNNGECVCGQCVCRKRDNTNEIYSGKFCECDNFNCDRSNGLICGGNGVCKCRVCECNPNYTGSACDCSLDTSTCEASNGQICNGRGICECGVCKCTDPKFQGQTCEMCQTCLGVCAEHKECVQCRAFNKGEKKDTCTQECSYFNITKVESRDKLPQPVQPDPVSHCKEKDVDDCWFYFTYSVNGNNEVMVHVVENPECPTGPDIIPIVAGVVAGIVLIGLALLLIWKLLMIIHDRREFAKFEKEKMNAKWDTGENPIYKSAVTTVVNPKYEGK
UniProt Q08722, residues 19-323: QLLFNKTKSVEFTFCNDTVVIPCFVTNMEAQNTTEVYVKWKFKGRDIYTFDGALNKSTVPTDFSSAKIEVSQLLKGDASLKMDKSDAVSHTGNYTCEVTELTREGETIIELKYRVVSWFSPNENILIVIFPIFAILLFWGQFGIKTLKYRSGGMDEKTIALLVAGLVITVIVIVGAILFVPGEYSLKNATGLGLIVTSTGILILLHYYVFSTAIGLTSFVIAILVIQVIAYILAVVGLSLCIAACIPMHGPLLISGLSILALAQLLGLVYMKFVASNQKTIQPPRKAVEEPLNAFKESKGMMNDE
UniProt P20701: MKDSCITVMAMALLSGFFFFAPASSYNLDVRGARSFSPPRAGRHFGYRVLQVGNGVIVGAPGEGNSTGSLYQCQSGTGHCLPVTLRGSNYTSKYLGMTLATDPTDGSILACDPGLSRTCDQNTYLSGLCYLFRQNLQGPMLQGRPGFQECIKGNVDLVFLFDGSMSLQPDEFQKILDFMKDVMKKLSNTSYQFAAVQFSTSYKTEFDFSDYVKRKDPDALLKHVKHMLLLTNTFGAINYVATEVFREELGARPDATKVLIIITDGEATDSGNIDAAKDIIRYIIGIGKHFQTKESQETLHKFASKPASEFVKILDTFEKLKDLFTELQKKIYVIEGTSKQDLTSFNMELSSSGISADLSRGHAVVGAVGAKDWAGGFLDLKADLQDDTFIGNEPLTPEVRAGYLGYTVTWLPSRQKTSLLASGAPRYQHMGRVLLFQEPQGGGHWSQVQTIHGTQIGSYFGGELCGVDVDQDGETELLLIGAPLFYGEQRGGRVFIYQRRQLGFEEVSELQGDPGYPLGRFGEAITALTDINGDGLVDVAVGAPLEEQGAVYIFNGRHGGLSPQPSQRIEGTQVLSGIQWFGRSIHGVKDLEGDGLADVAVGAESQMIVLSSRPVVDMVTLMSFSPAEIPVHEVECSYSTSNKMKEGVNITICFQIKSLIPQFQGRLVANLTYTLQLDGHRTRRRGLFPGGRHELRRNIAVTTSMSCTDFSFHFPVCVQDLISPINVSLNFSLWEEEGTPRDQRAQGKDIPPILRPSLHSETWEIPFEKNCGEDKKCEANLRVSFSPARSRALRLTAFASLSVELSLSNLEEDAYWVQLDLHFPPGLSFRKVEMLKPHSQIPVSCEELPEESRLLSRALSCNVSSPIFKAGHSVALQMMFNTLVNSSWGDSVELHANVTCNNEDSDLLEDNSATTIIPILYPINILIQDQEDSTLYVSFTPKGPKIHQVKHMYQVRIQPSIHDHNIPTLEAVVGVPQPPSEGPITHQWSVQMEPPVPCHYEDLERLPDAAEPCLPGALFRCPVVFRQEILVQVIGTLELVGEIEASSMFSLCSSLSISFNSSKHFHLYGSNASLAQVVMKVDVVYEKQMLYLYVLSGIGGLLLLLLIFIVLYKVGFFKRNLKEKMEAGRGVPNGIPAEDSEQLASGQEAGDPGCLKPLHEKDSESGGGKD

Results are given in words; binding and its absence hold for the method and conditions named. In cells and extracts the contact can be indirect. Some entries that bind do so weakly or less than the wild type.

The target of test [1] is integrin α4β1 (human (endogenous in Jurkat)) (UniProt P13612+P05556). The experiment in a line: co-IP; endogenous proteins of human Jurkat cells lysed in RIPA solution with PMSF; lysate with anti-CD47, anti-integrin subunit α4 or anti-integrin subunit β1 antibody at 4°C overnight, Protein G sepharose beads 3 h, western blot; isotype control antibody as negative; the antibodies of the co-IP with integrin αLβ2 are not told. Background: A western blot detects proteins with antibodies after separation by electrophoresis.

For test [2], the target named is CD47 (human (endogenous in Jurkat)) (UniProt Q08722). Described as above.

With “CD47 (from UniProt Q08722 19-323) (receptor)”, the binding entry in test [1] is listed as “binds”.
Consider “integrin α4β1 (from UniProt P13612 34-1032; P05556 21-798) (complex)”, for which the binding result in test [2] is listed as “binds”.
With “integrin αLβ2 (from UniProt P20701 26-1170; P05107 23-769) (complex)”, the binding result in test [2] is “no binding”.
